# From PubChem BioAssay AID445 (National Center for Advancing Translational Sciences (NCATS), 2006)
# The other results are listed elsewhere or left out. The main result of the screen is listed elsewhere. These columns were measured beside it and carry no call. Most of these compounds were active or inconclusive in the main read-out, so they are no random draw. The note in brackets gives the kind of curve behind each potency; many fits are weak.
# Experiment: IkB Signaling
# Settings: ABC-DLBCL IkBa-CBG/CBR dual luciferase ratio (green luciferase fused to IkBa over red control in OCI-Ly3 lymphoma cells), 4 h
# Summary of the method: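 Curves were fitted separately to fusion (green), unfused (red) and ratio luminescence, then classed by r2, magnitude and activity. Cells: OCI-Ly3, 4 h compound plus doxycycline at 37C; 10 uM MG-132 defined full response.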
# [1] = measured here: control luc red channel unless noted
# [2] = measured here: IkB-luc green channel
# [3] = measured here: control luc red channel
compound,measurement,setting,value
CCOC(=O)c1c(NC(=O)c2cccs2)sc2c1CCN(C(=O)OCC)C2,AC50,[1],"3.98 µM [falling, full curve, poor fit]"
O=C1c2ccccc2C(=O)N1SC1CCCCC1,AC50,[1],"39.8 µM [falling, single point]"
CCCCN(CCCC)C1=C(C(=O)c2ccccc2)N(C)S(=O)(=O)c2ccccc21,AC50,[1],"39.8 µM [falling, single point]"
O=C(NCc1ccccc1)c1c[nH]c2ccc(S(=O)(=O)Nc3ccc4c(c3)OCCO4)cc2c1=O,AC50,[1],"10 µM [falling, partial curve]"
COc1ccccc1NC(=O)CSC1=Nc2ccccc2C2=NC(CCC(=O)NCc3cccs3)C(=O)N12 (centres undefined),AC50,[1],"39.8 µM [falling, single point]"
O=C(Nc1ccc(N2CCN(C(=O)c3ccco3)CC2)c(Cl)c1)c1c(F)c(F)c(F)c(F)c1F,AC50,[1],"10 µM [falling, partial curve]"
Cn1c(=O)[nH]c2cc(-c3noc(-c4cccc(Cl)c4)n3)ccc21,AC50,[1],"0.631 µM [rising, full curve, poor fit]"
CCCNC(=O)Cn1nc(-c2ccc(F)cc2)c2cnc3ccc(F)cc3c21,AC50,[1],"0.0794 µM [rising, full curve]"
COc1ccc(NC(=O)c2ccc(CN3CCN(c4ccccc4)CC3)cc2)cc1OC,AC50,[1],"12.6 µM [falling, partial curve]"
CCC(C)NC(=O)c1cccc(NC(=O)c2nsc3ccccc23)c1 (centres undefined),AC50,[1],"6.31 µM [rising, single point]"
COc1cccc(Cn2c(=O)cnc3cnc(Nc4cccc(OC)c4)nc32)c1,AC50,[1],"3.16 µM [falling, partial curve] [measured here: IkB-luc green channel]"
Clc1ccc(C(c2ccc(Cl)cc2)n2cc[n+](C[C@@H](OCc3ccc(Cl)cc3Cl)c3ccc(Cl)cc3Cl)c2)cc1,AC50,[2],"39.8 µM [falling, single point]"
same,AC50,[3],"31.6 µM [falling, partial curve]"
CCC(=O)Nc1ccc(NC(=O)c2ccccc2Cl)nc1,AC50,[1],"7.94 µM [falling, partial curve]"
CCc1ccc(NC(=O)CSc2nc3c(sc4ccccc43)c(=O)n2CCCOC(C)C)cc1,AC50,[1],"3.16 µM [rising, full curve, poor fit]"
COc1ccc(-c2nc3ccc(NS(=O)(=O)c4ccc(Cl)cc4)cc3o2)cc1,AC50,[1],"15.8 µM [falling, partial curve]"
Cc1ccc(CNC(=O)c2ccc(CSCc3ccccc3C)o2)cc1,AC50,[1],"20 µM [falling, single point]"
COc1ccc(Cc2nnc(-c3cccc(C)c3)o2)cc1OC,AC50,[1],"3.16 µM [rising, partial curve]"
CCCCOC(=O)n1c(SCC(=O)N(CC)CC)nc2ccccc21,AC50,[1],"10 µM [falling, partial curve]"
O=C(CSc1cn(CC(=O)N2CCOCC2)c2ccccc12)Nc1ccccc1F,AC50,[1],"20 µM [falling, single point]"
Cc1cc2ccccc2n1CCNC(=O)c1cccc(Br)c1,AC50,[1],"31.6 µM [falling, partial curve]"
Cc1ccc(S(=O)(=O)Nc2ccc3c(c2)CCCN3C(=O)c2cccs2)cc1,AC50,[1],"39.8 µM [falling, single point]"
COc1ccc(OC)c(CCNC(=O)CCCn2c(=O)c3cccn3c3ccccc32)c1,AC50,[1],"6.31 µM [falling, single point]"
COc1ccc2oc(=O)cc(CN3CCN(Cc4ccccc4)CC3)c2c1,AC50,[1],"20 µM [falling, single point]"
Cc1cccc(N2CCN(C(=O)c3cc4c(C)nc5ccccc5c4o3)CC2)c1C,AC50,[1],"12.6 µM [falling, partial curve]"
CCN(C(=O)c1cc2c(s1)-c1c(C)cccc1OC2)c1ccccc1F,AC50,[1],"0.631 µM [falling, full curve]"
COc1ccc(CC(=O)N2CCc3cc(OC)c(OC)cc3C2COc2ccc(OC)cc2)cc1 (centres undefined),AC50,[1],"39.8 µM [falling, single point]"
CCC(=O)N1CCc2cc(Br)cc(S(=O)(=O)Nc3ccc(C)cc3C)c21,AC50,[1],"6.31 µM [rising, single point]"
Cc1ccc2c(c1)-c1cc(C)nn1C(c1sccc1C)N2 (centres undefined),AC50,[1],"39.8 µM [falling, single point]"
COc1cccc(NC(=O)c2ccccc2-c2nc(-c3cccc(C)c3)no2)c1,AC50,[1],"6.31 µM [falling, partial curve]"
Cc1ccc(C)c(NC(=O)c2cnn(-c3cccc(F)c3)c2C2CCN(C(=O)OC(C)(C)C)CC2)c1,AC50,[1],"12.6 µM [falling, partial curve]"
O=C1CC(c2nc3ccccc3[nH]2)CN1c1cccc(Cl)c1 (centres undefined),AC50,[1],"15.8 µM [falling, partial curve]"
Cc1sc2nc3ccc(N4CCCCC4)nn3c(=O)c2c1C,AC50,[1],"25.1 µM [falling, partial curve]"
CCCCNc1nc2c(c(=O)n(Cc3ccc(Cl)cc3)c(=O)n2C)n1C,AC50,[1],"15.8 µM [falling, partial curve]"
O=C(Nc1cc(=O)c2ccccc2o1)N1CCCCC1,AC50,[1],"39.8 µM [falling, single point]"
COc1cccc(CSc2nc3cc(C(=O)NC4CCCC4)ccc3c(=O)n2Cc2ccccc2)c1,AC50,[1],"0.2 µM [falling, full curve]"
COc1ccc(-n2cc(C(=O)NCc3ccccc3)c3ccccc3c2=O)cc1,AC50,[1],"12.6 µM [falling, partial curve]"
CC1Cc2ccccc2N1S(=O)(=O)c1cccc(C(=O)c2nccn2C)c1 (centres undefined),AC50,[1],"20 µM [falling, partial curve]"
Cc1cc(Cl)ccc1NC(=O)c1cc(S(=O)(=O)N2CCOCC2)cn1C,AC50,[1],"12.6 µM [rising, partial curve, poor fit]"
O=C(c1ccc2c(c1)N(Cc1ccc(Cl)cc1)C(=O)c1ccccc1S2=O)N1CCOCC1 (centres undefined),AC50,[1],"15.8 µM [falling, partial curve]"
Cc1ccc(CNC(=O)CCS(=O)(=O)c2cc(Br)cc3c2N(C(=O)C2CC2)CC3)o1,AC50,[2],"39.8 µM [rising, single point]"
same,AC50,[3],"15.8 µM [falling, partial curve]"
Cc1cc(C)c2c(CC(=O)N3CCN(c4cccc(Cl)c4)CC3)coc2c1,AC50,[1],"31.6 µM [falling, single point]"
COc1cccc(N2CCN(C(=O)c3ccc(Cn4c(=O)[nH]c5cc(OC)c(OC)cc5c4=O)cc3)CC2)c1,AC50,[1],"10 µM [falling, partial curve]"
O=C(c1ccc(N2CN(C(=O)c3ccco3)c3nc4ccccc4nc32)cc1)N1CCOCC1,AC50,[1],"12.6 µM [falling, partial curve]"
COc1ccc(C(CNC(=O)c2oc3ccc(Cl)cc3c2C)N2CCCCC2)cc1 (centres undefined),AC50,[1],"39.8 µM [falling, single point]"
COc1ccc(NC(=O)Cn2c(SCc3cc(C)ccc3C)nc3ccncc32)c(OC)c1OC,AC50,[1],"12.6 µM [falling, partial curve]"
COc1ccccc1N1CCN(CCCCN2C(=O)c3ccccc3C2=O)CC1,AC50,[1],"6.31 µM [falling, full curve, poor fit]"
COc1ccc2c(CNCc3cccs3)c(C(=O)O)n(Cc3ccccc3)c2c1,AC50,[1],"12.6 µM [falling, partial curve]"
Cc1c(CCNC(=O)c2ccc(Br)o2)sc2nc(-c3ccc(F)cc3)nn12,AC50,[2],"39.8 µM [falling, partial curve, poor fit]"
same,AC50,[3],"39.8 µM [falling, single point]"
O=C(Cn1c(=O)c2cccn2c2ccccc21)NCCc1ccccc1,AC50,[1],"10 µM [falling, partial curve]"
CCc1cccc(NC(=O)CSC2=Nc3ccccc3N=C(c3ccc(F)cc3)C2)c1,AC50,[1],"12.6 µM [falling, partial curve, poor fit]"
O=C(CSc1nnc(CNC(=O)c2cccc(F)c2)n1-c1ccccc1)Nc1ccccc1F,AC50,[1],"3.98 µM [falling, partial curve]"
COc1ccc(Nc2nc(-c3ccc(C)cc3)nc3ccccc23)c(OC)c1,AC50,[1],"12.6 µM [falling, partial curve]"
CCCCCn1c(C(C)NC(=O)c2ccccc2)nc2ccccc21 (centres undefined),AC50,[1],"1.58 µM [falling, full curve, poor fit]"
CCOC(=O)COc1cccc2c(=O)n(CC(=O)NCc3ccc4c(c3)OCO4)ccc12,AC50,[1],"0.631 µM [rising, full curve, poor fit]"
Cc1ccc2[nH]c(=O)c(CN(Cc3ccc4c(c3)OCO4)Cc3nnnn3Cc3ccco3)cc2c1,AC50,[1],"6.31 µM [falling, partial curve]"
CCOc1cc(CNC(=O)C2COc3ccccc3C2)cc(OCC)c1OCC (centres undefined),AC50,[1],"12.6 µM [falling, partial curve]"
CCOc1ccc(-c2ccc(NS(=O)(=O)c3ccc(C)cc3)cc2)nn1,AC50,[1],"0.00631 µM [falling, full curve, poor fit]"
Cc1cccn2c(=O)c(/C=C(\C#N)c3nc4ccccc4[nH]3)c(Oc3ccc(C(C)(C)C)cc3)nc12,AC50,[1],"25.1 µM [falling, single point]"
Nc1nonc1C(=O)NCCNCc1cc(Br)ccc1OCc1ccc(F)cc1,AC50,[1],"12.6 µM [falling, partial curve]"
O=C(CCc1nc(-c2cccs2)no1)Nc1cccc([N+](=O)[O-])c1,AC50,[1],"39.8 µM [falling, single point]"
Cc1ccc(C)c(N2CCN(C(c3ccccc3)c3nnc(-c4ccccc4F)o3)CC2)c1 (centres undefined),AC50,[1],"10 µM [falling, partial curve]"
